Assay [1] concerns the target T1, endogenous PIRH2 in RKO cells (human (endogenous in RKO)) (UniProt Q96PM5).
T1 sequence: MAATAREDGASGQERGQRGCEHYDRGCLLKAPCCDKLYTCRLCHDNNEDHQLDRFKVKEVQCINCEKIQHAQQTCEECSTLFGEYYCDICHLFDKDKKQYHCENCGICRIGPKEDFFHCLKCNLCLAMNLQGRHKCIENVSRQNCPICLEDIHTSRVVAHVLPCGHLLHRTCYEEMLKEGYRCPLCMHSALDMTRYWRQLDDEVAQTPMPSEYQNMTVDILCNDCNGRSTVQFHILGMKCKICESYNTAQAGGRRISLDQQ
Kind of assay: co-IP; endogenous proteins, RKO cell lysate; IP with anti-PIRH2 antibody (Santa Cruz FL261), immunoblot.

Sequences of proteins named here, by UniProt entry; tags and fusion partners are left off.
UniProt P01108: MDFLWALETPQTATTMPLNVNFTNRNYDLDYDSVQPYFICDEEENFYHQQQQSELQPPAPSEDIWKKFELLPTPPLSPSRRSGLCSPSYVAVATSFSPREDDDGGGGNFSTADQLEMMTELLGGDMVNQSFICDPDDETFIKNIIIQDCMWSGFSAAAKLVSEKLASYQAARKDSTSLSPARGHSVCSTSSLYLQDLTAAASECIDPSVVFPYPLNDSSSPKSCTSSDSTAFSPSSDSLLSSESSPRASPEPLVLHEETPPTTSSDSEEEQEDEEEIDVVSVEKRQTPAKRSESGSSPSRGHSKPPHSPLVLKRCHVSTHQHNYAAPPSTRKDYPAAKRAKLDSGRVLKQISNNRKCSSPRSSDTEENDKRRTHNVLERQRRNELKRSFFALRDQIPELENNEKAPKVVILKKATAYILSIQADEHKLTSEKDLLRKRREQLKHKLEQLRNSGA
UniProt Q969H0: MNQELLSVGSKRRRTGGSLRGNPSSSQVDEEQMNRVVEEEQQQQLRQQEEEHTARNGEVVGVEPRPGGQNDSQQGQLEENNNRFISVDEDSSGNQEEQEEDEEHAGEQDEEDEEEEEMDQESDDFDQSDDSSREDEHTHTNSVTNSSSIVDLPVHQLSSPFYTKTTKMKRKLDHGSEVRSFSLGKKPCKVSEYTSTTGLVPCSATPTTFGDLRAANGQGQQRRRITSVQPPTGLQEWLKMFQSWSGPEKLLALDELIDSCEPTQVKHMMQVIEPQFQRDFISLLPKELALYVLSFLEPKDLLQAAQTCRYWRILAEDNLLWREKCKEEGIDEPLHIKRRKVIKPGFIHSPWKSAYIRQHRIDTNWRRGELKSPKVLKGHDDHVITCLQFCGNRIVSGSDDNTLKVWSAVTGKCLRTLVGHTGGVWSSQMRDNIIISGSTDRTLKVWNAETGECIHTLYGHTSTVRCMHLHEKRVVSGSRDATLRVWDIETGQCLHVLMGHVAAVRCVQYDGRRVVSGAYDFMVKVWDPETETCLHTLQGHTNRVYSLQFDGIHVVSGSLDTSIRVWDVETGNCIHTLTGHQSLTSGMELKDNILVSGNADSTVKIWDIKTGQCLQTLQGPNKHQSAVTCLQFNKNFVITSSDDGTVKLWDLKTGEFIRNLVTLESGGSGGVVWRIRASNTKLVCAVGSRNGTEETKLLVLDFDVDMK
UniProt P01106: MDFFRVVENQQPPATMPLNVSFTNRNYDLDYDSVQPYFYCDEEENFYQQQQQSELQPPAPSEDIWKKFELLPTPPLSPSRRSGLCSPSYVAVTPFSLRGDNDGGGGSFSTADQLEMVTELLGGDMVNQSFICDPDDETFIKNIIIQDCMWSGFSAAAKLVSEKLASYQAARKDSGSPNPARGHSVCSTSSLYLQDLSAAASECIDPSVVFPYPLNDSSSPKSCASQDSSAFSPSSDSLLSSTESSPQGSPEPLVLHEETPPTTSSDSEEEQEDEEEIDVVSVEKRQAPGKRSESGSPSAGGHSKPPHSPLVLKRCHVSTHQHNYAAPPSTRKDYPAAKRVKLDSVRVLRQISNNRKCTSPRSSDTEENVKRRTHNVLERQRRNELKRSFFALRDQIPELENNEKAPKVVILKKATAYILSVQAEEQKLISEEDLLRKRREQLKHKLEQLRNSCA

Assay [2] concerns the target T2, murine Pirh2, endogenous in NIH3T3 cells (mouse (endogenous in NIH3T3)) (UniProt Q9CR50).
T2 sequence: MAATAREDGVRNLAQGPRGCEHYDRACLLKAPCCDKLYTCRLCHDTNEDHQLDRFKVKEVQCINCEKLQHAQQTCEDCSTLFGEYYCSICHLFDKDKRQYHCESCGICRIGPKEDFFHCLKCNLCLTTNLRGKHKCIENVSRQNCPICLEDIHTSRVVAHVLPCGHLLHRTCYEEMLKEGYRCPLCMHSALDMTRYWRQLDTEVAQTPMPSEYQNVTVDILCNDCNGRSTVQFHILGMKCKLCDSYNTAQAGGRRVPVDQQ
Kind of assay: co-IP; endogenous proteins, non-transfected NIH3T3 lysate; IP with antibodies against murine Pirh2 or murine c-Myc, immunoblot. For orientation: Immunoblotting shows a protein as a band on a membrane.

Assay [3] has as its target murine c-Myc, endogenous in NIH3T3 cells (mouse (endogenous in NIH3T3)) (UniProt P01108). The assay is described as above.

No constants are given. Whether binding was seen depends on the method and setting. Binding seen in cells or lysates may run through a third protein. Some entries that bind do so weakly or less than the wild type.

As for “endogenous FBW7 in RKO cells (from UniProt Q969H0 1-707)”, the binding result in assay [1] is reported as “no binding”.

In the case of “endogenous c-MYC in RKO cells (from UniProt P01106 1-454)”, in assay [1], the binding result is listed as “binds”.

As to “murine c-Myc, endogenous in NIH3T3 cells (from UniProt P01108 1-454)”, the binding entry in assay [2] is given as “binds”.

B1: murine Pirh2, endogenous in NIH3T3 cells (protein, UniProt Q9CR50 1-261)
chain: MAATAREDGVRNLAQGPRGCEHYDRACLLKAPCCDKLYTCRLCHDTNEDHQLDRFKVKEVQCINCEKLQHAQQTCEDCSTLFGEYYCSICHLFDKDKRQYHCESCGICRIGPKEDFFHCLKCNLCLTTNLRGKHKCIENVSRQNCPICLEDIHTSRVVAHVLPCGHLLHRTCYEEMLKEGYRCPLCMHSALDMTRYWRQLDTEVAQTPMPSEYQNVTVDILCNDCNGRSTVQFHILGMKCKLCDSYNTAQAGGRRVPVDQQ
Turning to B1, the binding entry in assay [3] is “binds”.

Values taken from publication PMC3219591.
